Experimental data published in patent US20210052600A1, “THERAPEUTIC AGENTS FOR STRESS URINARY INCONTINENCE AND INCOTINENCE OF FECES” (Takeda Pharmaceutical Company Limited, priority 2017, published 2021).

Test: Comparison of plasma concentrations for urethra-closing effect and anti-obesity effect (analysis of Examples 1-9 and literature)

| SMILES | difference between rat plasma concentration elevating urethral resistance by 10 cmH2O (61 ng/mL) and human plasma concentration (45 ng/mL) [fold] | fold lower plasma concentration for sufficient urethral resistance increase (LPP10) than that showing greater weight loss by 3.8% in obese rats (rat, ratio of Example 7 to Example 6 plasma concentrations) [fold] |
| --- | --- | --- |
| CC(C)N(C)c1cnc2c(n1)OCCNC2.Cl [Compound A, N-methyl-N-(1-methylethyl)-6,7,8,9-tetrahydropyrazino[2,3-f][1,4]oxazeine-3-amine] | 1.4 |  |
| CC(C)N(C)c1cnc2c(n1)OCCNC2.Cl [Compound A′, N-methyl-N-(1-methylethyl)-6,7,8,9-tetrahydropyrazino[2,3-f][1,4]oxazeine-3-amine] |  | 11 |
